Measurements: paper PMC9663165, “Human immunomodulatory ligand B7-1 mediates synaptic remodeling via the p75 neurotrophin receptor” (The Journal of Clinical Investigation, 2022)

Sequences of proteins named here, by UniProt entry; tags and fusion partners are left off. A change or cut given only in a name is not applied to a line headed by its entry. Residues count along the entry.
UniProt P08138: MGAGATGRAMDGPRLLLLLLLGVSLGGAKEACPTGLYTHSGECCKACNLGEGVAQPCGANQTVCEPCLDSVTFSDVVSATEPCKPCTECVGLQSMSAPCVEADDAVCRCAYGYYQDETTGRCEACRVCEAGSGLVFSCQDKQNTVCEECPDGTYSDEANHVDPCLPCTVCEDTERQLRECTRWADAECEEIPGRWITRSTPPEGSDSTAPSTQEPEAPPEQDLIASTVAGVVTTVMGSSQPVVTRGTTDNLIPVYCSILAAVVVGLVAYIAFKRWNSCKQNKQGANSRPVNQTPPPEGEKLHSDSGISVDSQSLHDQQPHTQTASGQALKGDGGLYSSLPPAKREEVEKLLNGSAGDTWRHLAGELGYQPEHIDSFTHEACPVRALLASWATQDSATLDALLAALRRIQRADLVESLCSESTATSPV
UniProt P10586, residues 30-1907: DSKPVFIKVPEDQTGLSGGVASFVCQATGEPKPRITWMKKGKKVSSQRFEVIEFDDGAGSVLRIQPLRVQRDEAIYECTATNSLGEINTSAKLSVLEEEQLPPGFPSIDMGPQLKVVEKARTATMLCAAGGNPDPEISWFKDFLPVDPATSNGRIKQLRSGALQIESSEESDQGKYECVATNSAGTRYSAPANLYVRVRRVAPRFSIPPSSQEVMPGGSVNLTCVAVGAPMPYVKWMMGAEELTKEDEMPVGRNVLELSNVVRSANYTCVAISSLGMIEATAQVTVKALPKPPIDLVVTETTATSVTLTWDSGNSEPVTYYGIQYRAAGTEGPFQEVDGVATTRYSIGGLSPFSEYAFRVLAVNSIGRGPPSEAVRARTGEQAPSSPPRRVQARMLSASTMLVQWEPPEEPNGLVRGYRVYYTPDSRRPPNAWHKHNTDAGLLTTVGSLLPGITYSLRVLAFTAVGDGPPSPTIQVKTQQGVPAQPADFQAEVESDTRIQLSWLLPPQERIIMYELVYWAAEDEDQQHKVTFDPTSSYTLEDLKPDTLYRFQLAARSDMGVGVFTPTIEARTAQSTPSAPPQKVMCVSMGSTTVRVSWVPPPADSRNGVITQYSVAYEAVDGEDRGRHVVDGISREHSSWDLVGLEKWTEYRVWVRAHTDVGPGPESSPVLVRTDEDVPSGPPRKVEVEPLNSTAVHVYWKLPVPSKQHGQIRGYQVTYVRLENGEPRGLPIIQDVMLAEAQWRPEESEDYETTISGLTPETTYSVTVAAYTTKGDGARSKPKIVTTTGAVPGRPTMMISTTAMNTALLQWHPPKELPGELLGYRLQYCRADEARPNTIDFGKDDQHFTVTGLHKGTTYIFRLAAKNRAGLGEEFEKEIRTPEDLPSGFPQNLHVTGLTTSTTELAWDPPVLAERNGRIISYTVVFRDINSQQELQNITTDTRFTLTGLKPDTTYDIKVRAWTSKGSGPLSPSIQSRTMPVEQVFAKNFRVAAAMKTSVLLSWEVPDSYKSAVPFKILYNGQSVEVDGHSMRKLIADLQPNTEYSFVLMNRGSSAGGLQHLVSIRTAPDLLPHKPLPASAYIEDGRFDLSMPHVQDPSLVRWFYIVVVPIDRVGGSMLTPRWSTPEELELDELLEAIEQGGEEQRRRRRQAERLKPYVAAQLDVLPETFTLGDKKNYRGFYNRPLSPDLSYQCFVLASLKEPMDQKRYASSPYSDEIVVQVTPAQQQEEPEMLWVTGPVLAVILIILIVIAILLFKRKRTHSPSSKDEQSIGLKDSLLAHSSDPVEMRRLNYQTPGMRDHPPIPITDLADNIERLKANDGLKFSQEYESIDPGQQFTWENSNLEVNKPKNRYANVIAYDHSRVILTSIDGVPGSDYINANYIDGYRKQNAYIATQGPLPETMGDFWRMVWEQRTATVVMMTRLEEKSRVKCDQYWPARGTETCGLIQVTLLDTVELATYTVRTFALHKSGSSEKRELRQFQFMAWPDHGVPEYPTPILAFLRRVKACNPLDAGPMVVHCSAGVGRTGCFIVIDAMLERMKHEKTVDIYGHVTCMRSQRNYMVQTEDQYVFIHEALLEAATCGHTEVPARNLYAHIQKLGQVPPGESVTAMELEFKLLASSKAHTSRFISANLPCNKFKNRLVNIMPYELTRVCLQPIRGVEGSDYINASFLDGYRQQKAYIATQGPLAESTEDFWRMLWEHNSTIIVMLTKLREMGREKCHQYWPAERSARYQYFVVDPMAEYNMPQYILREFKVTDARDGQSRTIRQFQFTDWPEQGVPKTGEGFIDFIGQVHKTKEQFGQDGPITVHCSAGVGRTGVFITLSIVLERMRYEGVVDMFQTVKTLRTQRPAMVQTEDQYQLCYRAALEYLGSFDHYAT

Biological target: p75^NTR E147D-GFP (human) (UniProt P08138)
Test: flow cytometry on cells; cell-cell conjugates: cells expressing p75NTR-GFP point mutants against cells expressing PTPRF-mCherry

binding: binds
Substance: protein tyrosine phosphatase receptor type F (PTPRF) (from UniProt P10586 30-1907)

These are yes or no findings as the source states them, for the method shown. Binding calls can cover weak binding; strength is not graded here.
